The full ranking holds about 33,000 sequences; the median of “E-score (-0.5 to 0.5)” is about -0.0059, and the highest 2% start at about 0.26. Some of the results follow.
The sequences below were run against T1, Cin5 (UniProt P40917) (assay: PBM E-score (8-mer binding enrichment) (E-score (-0.5 to 0.5)); higher = stronger / more preferred TF binding). Details: protein concentration: 100 nM; construct: GST-full length.
T1 sequence: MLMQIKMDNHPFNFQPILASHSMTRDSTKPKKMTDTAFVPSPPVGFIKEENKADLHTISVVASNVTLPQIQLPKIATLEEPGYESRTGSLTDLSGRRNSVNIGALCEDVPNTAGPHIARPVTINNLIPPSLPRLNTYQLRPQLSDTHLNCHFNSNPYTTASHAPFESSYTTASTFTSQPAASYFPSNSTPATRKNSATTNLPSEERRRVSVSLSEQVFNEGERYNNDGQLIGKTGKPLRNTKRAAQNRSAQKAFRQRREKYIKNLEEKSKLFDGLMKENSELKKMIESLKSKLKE
Procedure: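 Universal 'all 10-mer' protein binding microarrays (Agilent AMADID 015681) probed with GST-tagged S. cerevisiae TFs (full-length or DBD) made by in vitro transcription/translation (PURExpress), about 100-200 nM. Bound TF was detected with fluorescent anti-GST. Each ungapped 8-mer (which stands for itself and its reverse complement) is scored by the PBM enrichment score (E-score), a modified Wilcoxon-Mann-Whitney statistic from -0.5 to +0.5, computed with the Universal PBM Analysis Suite. Scale: above 0.35 generally sequence-specific binding.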

Sequence | PBM E-score
ACCTACTA | 0.165
TTACCGAA | 0.218
ATTATGCG | 0.338
ATAGGATC | -0.0205
TGATATCA | 0.0713
CTATCACA | 0.173
GCTTACCA | 0.381
ACTGTGAG | -0.034
AGCATTCC | 0.0595
CAAACCTA | 0.133
CTTTTTTA | 0.0209
CAACATAG | 0.0889
AATCAGTA | 0.223
GCGATGTA | 0.0756
AATGCTTC | 0.118
AGTACCAG | 0.0123
AGTCTGTG | -0.136
ACCTCTGC | -0.143
GGACGTGA | -0.14
GAGTAAAC | 0.0697
AGCTCGGG | 0.0324
GTTAGAAC | -0.0566
TCAACCAA | 0.0695
AATGAGAC | -0.0439
TGATGTAA | 0.329

Retrieved one by one from the list above, two records:
Sequence | PBM E-score
AATGCTTC | 0.118
AGCTCGGG | 0.0324

More records.

Sequence | PBM E-score
ACCTTGAT | 0.12
GTGGTTCA | 0.172
CACTACAC | 0.00684
TAACCGGA | 0.106
CTTTGGCC | -0.0561
CGTTTGGA | -0.0143
CGGGCATA | -0.108
AAGCTGCG | -0.0682
CACACGAC | -0.0441
AAGTTGTG | 0.265
AACAAATA | 0.278
ATTACACG | 0.0848
AAAAACGT | 0.00218
AGGCTTAC | 0.258
CGGCATAC | -0.0796
TCCCACGA | -0.00171
CCGGACTA | 0.00432
GCTAGGTA | -0.0363
AGGGTAAG | 0.0407
TAAACGCA | 0.0929
AGATGAAT | 0.1
ATAACTCA | 0.152
CTCTTTAA | -0.116
GAACGTAC | -0.115
GGGCATAA | 0.035

Sequence | PBM E-score
ACTCTTGA | -0.16
TCAATTAA | 0.0498
GTGATCTA | 0.084
CATACGTA | 0.242
ACCACATA | 0.0866
ACGCATCG | -0.00264
AGGCTGAT | 0.00129
CCAAAAAA | 0.174
GCTCCCCC | -0.462
CGTTGGGC | -0.0408
GAACTCTA | -0.0133
GGAGCGAC | -0.149
AGCCGCAC | -0.114
CATCGTTC | -0.0867
AACGTCAG | -0.00364
AACGCTGT | -0.0199
AATATCCC | 0.153
ATTAGGGC | -0.0867
CAAATGCG | 0.126
ATTGAACC | 0.0817
GCAGTTAA | 0.13
ATTCCTTG | -0.194
TCCTACCA | -0.22
GAAGGAAA | -0.102
TGAGGGCA | -0.0165

Sequence | PBM E-score
GGGTCAAC | 0.143
ACATCTAC | 0.145
GGGTTCGA | -0.142
GAATTTCA | 0.0435
CTCATTGC | 0.032
CCCTCTCG | -0.222
CCAGGCAC | -0.0617
TTCGGAAA | 0.0337
CAACCAAC | -0.0614
AGCCTCCA | -0.159
ATTAGATA | 0.301
CTAGCCTA | -0.171
CCTGACGA | 0.0104
CGCCCTTC | -0.222
TAGCGTAA | 0.229
AGGACGGG | -0.216
AGTATTGC | 0.065
CTCTGCGC | -0.0221
GGTACAAC | 0.0222
CAGAGTTC | -0.0406
CCCGCTAG | -0.199
CGCCTCAC | -0.0527
GCTAAAAC | -0.0775
GAACTTCA | -0.0563
GGTGTCAA | -0.0699

7 entries from above, with tabs:
Sequence	PBM E-score
GGGTCAAC	0.143
CCCTCTCG	-0.222
CTAGCCTA	-0.171
AGTATTGC	0.065
GGTACAAC	0.0222
CCCGCTAG	-0.199
CGCCTCAC	-0.0527

Later entries

Sequence | PBM E-score
AGTGCCGA | -0.0154
GAGATAGC | 0.0271
CTAATTAA | -0.0017
AACAATAT | 0.345
ACAAACCC | 0.0357
AGGGGAGC | -0.262
CACCGGAG | -0.115
GGACGGCC | -0.204
TACGCCCA | 0.0142
CATCCTTC | 0.0872
CGGTATAG | -0.0391
CTTAATGC | 0.135
AAACAATT | 0.154
AAACGGTG | -0.166
CATACAAC | 0.197
AACCTGGA | 0.0157
CCCCTCAG | -0.211
CTCCTACA | -0.011
CCGGATTC | 0.0513
AACCACTT | 0.126
AGCTTCCC | -0.174
TGCTACAA | 0.0648
AAGTCTAA | -0.0864
CAATTTAG | 0.161
TCTCATAA | 0.165

Sequence | PBM E-score
CGGGTCGC | -0.112
TAGGTAAA | 0.125
TGTAGAAA | -0.00542
ATGCTCAC | 0.0224
CCTTCGCC | -0.338
ATTCGCGG | 0.0945
ACATCTCC | 0.021
ATGTCCCA | -0.146
GGATGCTA | -0.0218
ATTCCAAG | 0.032
TAAGTGCA | 0.202
ATGTGGTC | 0.127
AATCATAA | 0.164
CCGCTACC | 0.0111
ACCCAAAT | 0.0648
GATAGGGA | -0.129
AGACACTA | 0.126
GATAGATC | 0.00499
CCAGTTGA | -0.0468
GAGAAAGC | -0.0555
AACCACGT | -0.0437
ACTCCTGA | 0.0279
TACCTGCA | 0.0178
CACTCGGA | 0.12
ACCCCGCT | -0.0379

Sequence | PBM E-score
AGAAACGG | -0.00443
GCTGATTA | 0.279
GACGCGTA | 0.0632
GGTAACAA | 0.225
CATACTAC | 0.0431
AGTACACG | -0.0913
GAAATCAC | 0.149
AAAATTCT | 0.0637
CTGTTCCC | -0.193
CGGGGATC | -0.251
AGTCGCCG | 0.00437
AAGTTGTC | 0.127
CAGCTCGA | 0.0186
AGGTACGG | -0.152
ACAGGCGG | -0.0156
ATGACATG | 0.0189
CAGAGTAG | 0.0664
CGCTGATA | 0.0246
ACGGCTGG | -0.193
ACTGGCCT | -0.128
TAAATATA | 0.261
GCTTGGCA | -0.246

— the supplement of paper PMC3334620
